Assay results reported in publication PMC7329908.
Results are given in words; binding and its absence hold for the method and conditions named. Binding calls can cover weak binding; strength is not graded here.

Target: C. elegans Hsp90 (HSP-90) (C. elegans) (UniProt Q18688)
Assay: AUC; sedimentation velocity with fluorescence detection; 600 nM ATTO 488-labelled GRLBDm, 3 μM unlabelled chaperones and cofactors, no nucleotide; 20 mM HEPES, 20 mM KCl, 5 mM MgCl2, 50 μM dexamethasone, pH 7.5; 42,000 rpm, 20 °C; both purified

binding: binds
Substance: AHSA-1, nematode ATPase activator of HSP-90 (from UniProt Q93168)
